Taken from: PubChem BioAssay AID1671195 (Yale University, 2021)
Shown is a random part of about 22,000 reagents tested. About 1,510 of all reagents (6.9%) were called active. 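Active includes knockdowns raising or lowering LDL uptake; positive z-scores mean more uptake, negative mean less.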

Assay: 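Regulators of LDL receptor activity judged by labelled LDL uptake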 (primary screen)
Cells: human Huh7 hepatoma cells
Reagents: siRNA pool against human genes, 18 nM
Timing: about 2 to 2.5 days of knockdown, then 8 h LDL uptake
Conditions: DiI-labelled LDL at 30 µg/ml for 8 h, in lipoprotein-deficient serum medium
Measured: 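Fluorescent LDL signal imaged in cells, scaled to the plate median, robust z-score for each replicate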
Scale: robust z-score: higher = more LDL uptake after knockdown
Active means: 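a gene counts as active if at least two replicate z-scores exceed ±2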

| gene knocked down | robust z-score, replicate 1 | robust z-score, replicate 2 | robust z-score, replicate 3 | call |
| --- | --- | --- | --- | --- |
| AGAP1 | 1.05 | 0.505 | 1.06 | inactive |
| PTPN21 | 1.35 | 1.56 | 1.28 | inactive |
| SERPINB9 | 2.28 | 3.02 | 6.24 | active |
| TPR | -0.504 | -0.279 | -0.365 | inactive |
| GRIN2A | 0.306 | 0.208 | -0.3 | inactive |
| LOC402011 (retired record) | 0.513 | 0.373 | 0.875 | inactive |
| FERMT2 | 3.83 | 4.06 | 6.88 | active |
| MCAM | 1.63 | 1.08 | 0.023 | inactive |
| ZNF627 | -1.75 | -1.54 | -1.05 | inactive |
| SLC12A9 | -0.00901 | 0.208 | 0.125 | inactive |
| C16orf96 | 0.702 | 0.724 | 0.649 | inactive |
| PCOTH | -0.386 | 0.268 | 0.0983 | inactive |
| MAPK8 | 0.0623 | -0.0174 | 0.209 | inactive |
| FHL3 | 1.79 | 0.919 | 1.12 | inactive |
| CD80 | 0.108 | -1.31 | -0.104 | inactive |
| DRD2 | -0.847 | 0.582 | -0.541 | inactive |
| DNAAF3 | -0.267 | -0.767 | -0.544 | inactive |
| SMIM24 | 0.112 | 0.28 | -0.0488 | inactive |
| PITPNM2 | 1.41 | 2.36 | 2.66 | active |
| NID1 | 0.2 | 0.557 | -0.323 | inactive |
| SPOCK2 | -0.978 | -0.0694 | -0.578 | inactive |
| GPR141 | -0.11 | 1.03 | 1.07 | inactive |
| KSR2 | -1.02 | -0.847 | -0.954 | inactive |
| ATG16L2 | -0.584 | -0.34 | -0.694 | inactive |
| RNF111 | 0.423 | -0.264 | -0.287 | inactive |
| LOC389936 (retired record) | -0.779 | -0.45 | -0.536 | inactive |
| MAGED4B | -0.659 | 0.424 | 0.319 | inactive |
| KLF11 | -0.859 | -0.574 | -0.61 | inactive |
| FAM120B | 0.915 | 1.36 | 2.07 | inactive |
| MRPL40 | -0.835 | -1.47 | 0.0387 | inactive |
| LOC440030 (retired record) | -1.14 | -1.24 | -1.6 | inactive |
| LOC441787 (retired record) | -1.07 | -1.33 | -1.07 | inactive |
| RAX | -0.455 | 0.979 | 0.872 | inactive |
| TNFRSF12A | 0.754 | 0.0675 | 1.38 | inactive |
| MGC27382 | -0.732 | -0.652 | -1.57 | inactive |
| LOC346305 (retired record) | 0.178 | -0.302 | -0.472 | inactive |
| SLC60A1 | -0.0962 | -0.11 | -0.423 | inactive |
| SPCS1 | 0.779 | -0.742 | 0.408 | inactive |
| DPCD | 1.12 | 1.34 | 1.07 | inactive |
| LINC01343 | 0.98 | 0.954 | 0.655 | inactive |
| CENPK | -1.24 | -0.784 | -0.667 | inactive |
| ADGRL2 | -0.564 | -0.887 | -0.461 | inactive |
| LOC389863 (retired record) | -0.349 | -0.128 | -0.45 | inactive |
| GNG11 | 0.591 | 0.4 | 0.242 | inactive |
| ZNF229 | 1.15 | 1.62 | 0.88 | inactive |
| PHYKPL | -0.742 | -0.376 | -0.17 | inactive |
| LOC441829 (retired record) | -0.182 | 0.335 | 0.609 | inactive |
| CEP83 | -0.262 | -0.873 | -0.215 | inactive |
| PSMD6 | 2.9 | 2.28 | 0.634 | active |
| NECAB1 | -0.327 | -0.424 | -0.986 | inactive |
| PAM | -0.174 | -0.335 | 0.673 | inactive |
| ARF4P3 | -1.45 | -0.963 | -1.05 | inactive |
| GJB2 | -1.61 | -1.45 | -1.27 | inactive |
| PCBP4 | -1.65 | -1.18 | -1.71 | inactive |
| CPNE2 | 0.985 | 1.59 | 1.45 | inactive |
| ANKS1B | -0.721 | 0.851 | -1.1 | inactive |
| BPIFB9P | 1.31 | 0.509 | 1.03 | inactive |
| H2BC8 | 2.16 | 0.0697 | 1.13 | inactive |
| LOC653303 | -0.832 | -1.25 | -1.2 | inactive |
| ZNF416 | -1 | -0.401 | -1.33 | inactive |
| JMJD4 | 1.19 | 1.5 | 0.816 | inactive |
| ECI1 | 0.185 | -0.647 | 0.317 | inactive |
| SKIC8 | -0.591 | -1.14 | -0.872 | inactive |
| CUL7 | -0.766 | 0.0336 | 0.0694 | inactive |
| COX7B | 0.0936 | 0.44 | 0.759 | inactive |
| SLC17A3 | 0.0117 | 0.745 | 0.663 | inactive |
| SLC1A1 | -0.536 | -0.259 | -0.255 | inactive |
| RFC5 | -0.499 | 0.359 | 0.155 | inactive |

Records above with an active call (4):
| gene knocked down | robust z-score, replicate 1 | robust z-score, replicate 2 | robust z-score, replicate 3 | call |
| --- | --- | --- | --- | --- |
| SERPINB9 | 2.28 | 3.02 | 6.24 | active |
| FERMT2 | 3.83 | 4.06 | 6.88 | active |
| PITPNM2 | 1.41 | 2.36 | 2.66 | active |
| PSMD6 | 2.9 | 2.28 | 0.634 | active |
